# System: germ-free mice
# Assay: Germ-free mice on a diet deficient in tyrosine and queuine, queuine added to the diet (Marks & Farkas)
# Type: in vivo
smiles,measurement,setting,value
"Nc1nc2[nH]cc(CN[C@H]3C=C[C@H](O)[C@@H]3O)c2c(=O)[nH]1 [queuine, 2-amino-5-((((1S,4S,5R)-4,5-dihydroxy-2-cyclopenten-1-yl)amino)methyl)-1,7-dihydro-4H-pyrrolo (2,3-d) pyrimidin-4-one]",germ free mouse's daily dietary queuine requirement (upper bound),27.7 ng/mL x 7 mL liquid diet per day,193.9 ng
same,daily dietary queuine requirement per body weight,mouse weight 0.04 kg,approximately 0.00485 mg/kg per day
